In the assay the target is D(3) dopamine receptor (Homo sapiens, UniProt P35462).

Amino acid sequences for entries named in this document (tags omitted). Chains listed by the source or under a name are the forms on record and can include a tag or linker.
UniProt P35462, as listed by the source: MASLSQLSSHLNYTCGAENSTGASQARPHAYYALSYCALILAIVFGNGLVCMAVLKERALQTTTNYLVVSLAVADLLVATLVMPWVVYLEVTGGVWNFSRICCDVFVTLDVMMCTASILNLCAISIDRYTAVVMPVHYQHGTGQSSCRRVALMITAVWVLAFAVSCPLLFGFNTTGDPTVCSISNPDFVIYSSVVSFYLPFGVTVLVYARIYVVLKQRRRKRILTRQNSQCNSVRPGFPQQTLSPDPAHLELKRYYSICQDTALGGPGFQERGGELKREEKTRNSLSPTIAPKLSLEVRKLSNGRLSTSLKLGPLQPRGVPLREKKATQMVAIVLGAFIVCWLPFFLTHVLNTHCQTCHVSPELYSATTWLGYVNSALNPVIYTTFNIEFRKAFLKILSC

SMILES strings stand for the structures. Where “and” joins values, the source holds several entries; their conditions need not be identical. Equal entries are not always repeated.

In turn, `OCCOCCN1CCN(C2=Nc3ccccc3Sc3ccccc32)CC1` [2-[2-(4-dibenzo[b,f][1,4]thiazepin-11-ylpiperazin-1-yl)ethoxy]ethanol] returned a Ki of 9.2 nM.
Take `CN1CCN(CCCN2c3ccccc3Sc3ccc(Cl)cc32)CC1` [2-chloro-10-[3-(4-methylpiperazin-1-yl)propyl]phenothiazine;ethane-1,2-disulfonic acid]: the Ki is 3.4 nM and 2.4 nM.

By Ki is commonly meant a dissociation constant, usually derived from enzyme kinetics or from competition with a known ligand. Low readings indicate a stronger hold on the target, high ones a looser hold on the target.
